Experimental data published in PubChem BioAssay AID330 (DTP/NCI, 2004).
The list does not hold the whole screen: it is rich in T/C values a quarter to a half above the control, in often repeated tests (any T/C) and in doses without a T/C. Further doses and runs are listed elsewhere. T/C gives the treated animals as a percentage of the vehicle group. Some doses have a count of surviving animals in place of a T/C: the source holds a T/C of zero for them, seemingly a mark for toxic or unscored doses. Some survivor counts are full or nearly so, which does not show that the dose was tolerated: survival well below the control is almost never listed, so the zero probably covers shortened survival too. Survivors were counted at the toxicity check, usually on the fifth day, unless a day is given; later deaths do not show. Schedules are NCI's codes, read here as Q, the interval in days (D) or hours (H), X, the number of doses. Some entries hold several experiments; the results are listed from low to high. Some molecules as drawn cover several salts, stereoisomers or complexes of the source; a dose is that of the sample tested. Where survival is the endpoint, the PubChem record calls one and a half times the control and up active, and a quarter to a half above the control has no call in these data; cut-offs in other NCI protocols can differ. Some T/C values carry the count of animals alive at the toxicity check (mostly the fifth day); without a count, all were alive then.

System: P388 leukemia ip, CD2F1 mice, survival T/C
Test: NCI In Vivo Anticancer Drug Screen. Data for tumor model P388 Leukemia (intraperitoneal) in CD2F1 (CDF1) mice
Details: T/C endpoint: median survival time, higher T/C = longer survival
[1] = dose: 50.0 mg/kg/injection, schedule: Q04DX002 (ip), vehicle: saline with Tween-80
[2] = dose: 100.0 mg/kg/injection, schedule: Q04DX002 (ip), vehicle: saline with Tween-80
[3] = dose: 200.0 mg/kg/injection, schedule: Q01DX009 (ip), vehicle: saline with Tween-80

In the case of `CNc1nc(-c2ccc(OC)cc2)c(-c2ccc(OC)cc2)[nH]1`, the T/C [1] was 125 % of control and the survivor count [2] was 0 of 6.

In the case of `CC(=O)N([Si](C)(C)C)[Si](C)(C)C`, the T/C (dose: 50.0 mg/kg/injection, schedule: Q01DX009 (ip), vehicle: saline) was 95, 96 [5 of 6 alive], 97, 146 % of control and the survivor count (dose: 100.0 mg/kg/injection, schedule: Q01DX009 (ip), vehicle: saline) was 6 of 6.

With `CC1CC(C)(C)C2=NCCN21` (stereo not drawn) the survivor count (dose: 100.0 mg/kg/injection, schedule: Q01DX009 (ip), vehicle: water) was 0 of 6, the survivor count (dose: 120.0 mg/kg/injection, schedule: Q01DX005 (ip), vehicle: saline) was 0 of 6 and the survivor count (dose: 240.0 mg/kg/injection, schedule: Q01DX005 (ip), vehicle: saline) was 0 of 6.

For `CC1=Nc2nc(=NCCCN(C)C)nc3cccc(n23)N1`, the survivor count (dose: 120.0 mg/kg/injection, schedule: Q01DX005 (ip), vehicle: saline with Tween-80) was 3 of 6 and the survivor count (dose: 240.0 mg/kg/injection, schedule: Q01DX005 (ip), vehicle: saline with Tween-80) was 0 of 6.

For `CCC1(c2ccc(N)cc2)CCC(=O)NC1=O` (stereo not drawn), the survivor count (dose: 200.0 mg/kg/injection, schedule: Q01DX005 (ip), vehicle: Klucel (hydroxypropylcellulose) (HPC)) was 3 of 6.

For `ClC(Cl)(Cl)C1=NC2=C(Br)C=C(Br)C3=NC(C(Br)(Br)Br)=NC(=N1)N32`, the survivor count (dose: 240.0 mg/kg/injection, schedule: Q01DX005 (ip), vehicle: Klucel + Tween-80) was 1 of 6.

With `CCNC(=O)OCC1=C(COC(=O)NCC)C2OC1C(C(=O)OC)=C2C(=O)OC` the survivor count (dose: 25.0 mg/kg/injection, schedule: Q01DX009 (ip), vehicle: distilled water + Tween-80) was 6 of 6, the survivor count (dose: 50.0 mg/kg/injection, schedule: Q01DX009 (ip), vehicle: distilled water + Tween-80) was 5 of 6 and the survivor count (dose: 100.0 mg/kg/injection, schedule: Q01DX009 (ip), vehicle: distilled water + Tween-80) was 2 of 6. The survivor count (dose: 200.0 mg/kg/injection, schedule: Q01DX009 (ip), vehicle: distilled water + Tween-80) was 0 of 6.

`CCCCNC(=O)OCc1ccc(NCCN(CC)CC)c2c(=O)c3ccccc3sc12` was tested, and the T/C (dose: 6.25 mg/kg/injection, schedule: Q01DX005 (ip), vehicle: distilled water + Tween-80) was 135 % of control, the T/C (dose: 12.5 mg/kg/injection, schedule: Q01DX005 (ip), vehicle: distilled water + Tween-80, evaluated on day 30) was 103, 112, 116 % of control and the T/C (dose: 12.5 mg/kg/injection, schedule: Q01DX005 (ip), vehicle: distilled water + Tween-80, evaluated on day 35) was 104 % of control. For the same compound, the T/C (dose: 25.0 mg/kg/injection, schedule: Q01DX005 (ip), vehicle: distilled water + Tween-80, evaluated on day 30) was 114 and 128 % of control, the T/C (dose: 25.0 mg/kg/injection, schedule: Q01DX005 (ip), vehicle: distilled water + Tween-80, evaluated on day 35) was 129 % of control [5 of 6 alive] and the survivor count (dose: 25.0 mg/kg/injection, schedule: Q01DX005 (ip), vehicle: distilled water + Tween-80) was 6 of 6. For the same compound, the survivor count (dose: 50.0 mg/kg/injection, schedule: Q01DX005 (ip), vehicle: distilled water + Tween-80) was 3 of 6 and 6 of 6, the survivor count (dose: 100.0 mg/kg/injection, schedule: Q01DX005 (ip), vehicle: distilled water + Tween-80) was 0 of 6 and the survivor count (dose: 200.0 mg/kg/injection, schedule: Q01DX005 (ip), vehicle: distilled water + Tween-80) was 0 of 6.

With `CC1CCCC(C)N1NC1=NCCO1` (stereo not drawn) the survivor count (dose: 100.0 mg/kg/injection, schedule: Q04DX003 (ip), vehicle: saline with Tween-80) was 3 of 6.

With `CCOC(=O)C(F)C(Br)C(=O)OCC` (stereo not drawn) the T/C (dose: 50.0 mg/kg/injection, schedule: Q01DX009 (ip), vehicle: saline with Tween-80) was 130 % of control, the T/C (dose: 100.0 mg/kg/injection, schedule: Q01DX009 (ip), vehicle: saline with Tween-80) was 133 % of control and the survivor count [3] was 3 of 6. The survivor count (dose: 400.0 mg/kg/injection, schedule: Q01DX009 (ip), vehicle: saline with Tween-80) was 0 of 6.

In the case of `N#CCC1CCCC1=O` (stereo not drawn), the survivor count [3] was 5 of 6.

For `CN=C(N)N/N=C(\c1ccccc1)c1ccc(Cl)cc1`, the T/C (dose: 25.0 mg/kg/injection, schedule: Q04DX002 (ip), vehicle: saline with Tween-80) was 143 % of control, the survivor count [1] was 4 of 6 and the survivor count [2] was 0 of 6.
